This test has as its target Venus-GABAA receptor α1 subunit fusion (inhibitory synapse affinity tag) (UniProt P62812). The test is described as follows: co-IP; crude synaptosome fraction of adult mouse cortex (Otx1-VGABAARα1 or Otx1-eGFP control) solubilised in 0.1% Triton X-100, gel filtration on Sephacryl S1000, high molecular weight fractions 6-10 pooled; immunopurified with anti-eGFP antibody on Dynabeads Protein G; immunoblot. On the technique in general: In gel filtration, larger molecules generally elute earlier.

Protein sequences, listed by entry. Tags and fused reporters are not part of them. Residues count along the entry.
UniProt P62812, residues 28-455: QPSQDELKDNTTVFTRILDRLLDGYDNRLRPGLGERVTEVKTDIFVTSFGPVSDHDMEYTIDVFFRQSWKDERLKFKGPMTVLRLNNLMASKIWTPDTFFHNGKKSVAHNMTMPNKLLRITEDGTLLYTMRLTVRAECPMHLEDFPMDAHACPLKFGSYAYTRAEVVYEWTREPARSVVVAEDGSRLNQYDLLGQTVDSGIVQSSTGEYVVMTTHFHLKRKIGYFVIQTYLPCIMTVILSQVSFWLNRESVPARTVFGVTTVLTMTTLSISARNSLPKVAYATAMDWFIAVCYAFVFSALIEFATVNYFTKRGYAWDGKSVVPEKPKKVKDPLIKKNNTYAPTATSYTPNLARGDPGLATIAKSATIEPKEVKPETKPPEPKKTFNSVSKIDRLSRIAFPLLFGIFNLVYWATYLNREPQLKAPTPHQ
UniProt Q8BYM5, residues 35-825: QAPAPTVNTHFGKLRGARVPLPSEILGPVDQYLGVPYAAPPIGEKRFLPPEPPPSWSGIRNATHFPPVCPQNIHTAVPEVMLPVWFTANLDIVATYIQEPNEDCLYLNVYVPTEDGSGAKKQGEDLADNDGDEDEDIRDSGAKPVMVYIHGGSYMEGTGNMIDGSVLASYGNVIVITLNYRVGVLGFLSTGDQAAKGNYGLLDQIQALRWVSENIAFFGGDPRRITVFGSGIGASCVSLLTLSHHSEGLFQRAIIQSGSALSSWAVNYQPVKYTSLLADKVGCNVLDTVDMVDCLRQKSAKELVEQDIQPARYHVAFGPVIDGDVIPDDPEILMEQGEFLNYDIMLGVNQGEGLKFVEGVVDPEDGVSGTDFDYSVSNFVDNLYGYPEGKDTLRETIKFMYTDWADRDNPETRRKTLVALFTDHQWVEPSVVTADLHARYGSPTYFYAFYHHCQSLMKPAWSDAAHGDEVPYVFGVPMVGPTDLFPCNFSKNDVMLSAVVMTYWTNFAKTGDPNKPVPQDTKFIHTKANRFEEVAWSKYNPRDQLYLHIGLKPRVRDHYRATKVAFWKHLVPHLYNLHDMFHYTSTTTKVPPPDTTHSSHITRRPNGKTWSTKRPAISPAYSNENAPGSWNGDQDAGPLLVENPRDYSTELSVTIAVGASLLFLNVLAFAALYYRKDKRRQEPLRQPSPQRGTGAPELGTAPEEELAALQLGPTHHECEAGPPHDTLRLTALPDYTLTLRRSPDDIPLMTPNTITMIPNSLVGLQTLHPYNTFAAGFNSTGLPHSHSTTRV
UniProt Q69ZK9, residues 15-836: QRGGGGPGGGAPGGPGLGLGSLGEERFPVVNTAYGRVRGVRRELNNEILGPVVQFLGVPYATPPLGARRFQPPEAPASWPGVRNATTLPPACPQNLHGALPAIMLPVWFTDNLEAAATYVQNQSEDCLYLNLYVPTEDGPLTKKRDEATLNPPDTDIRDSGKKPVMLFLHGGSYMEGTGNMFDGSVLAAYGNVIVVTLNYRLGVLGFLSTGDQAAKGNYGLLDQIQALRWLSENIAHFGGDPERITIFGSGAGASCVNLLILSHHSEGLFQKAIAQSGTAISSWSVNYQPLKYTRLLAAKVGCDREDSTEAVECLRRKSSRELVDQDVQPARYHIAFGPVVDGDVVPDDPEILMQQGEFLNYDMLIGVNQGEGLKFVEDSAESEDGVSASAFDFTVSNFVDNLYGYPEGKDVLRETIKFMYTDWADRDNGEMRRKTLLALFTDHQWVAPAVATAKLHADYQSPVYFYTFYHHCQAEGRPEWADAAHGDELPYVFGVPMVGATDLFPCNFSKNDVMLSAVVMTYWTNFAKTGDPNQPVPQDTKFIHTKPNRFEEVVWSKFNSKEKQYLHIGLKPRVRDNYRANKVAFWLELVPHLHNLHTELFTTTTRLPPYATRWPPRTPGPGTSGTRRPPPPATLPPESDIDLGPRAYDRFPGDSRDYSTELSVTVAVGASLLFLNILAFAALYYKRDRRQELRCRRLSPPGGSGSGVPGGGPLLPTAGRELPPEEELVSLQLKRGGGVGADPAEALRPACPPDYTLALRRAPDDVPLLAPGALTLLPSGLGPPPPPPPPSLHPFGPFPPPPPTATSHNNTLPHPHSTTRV
UniProt Q99K10, residues 46-843: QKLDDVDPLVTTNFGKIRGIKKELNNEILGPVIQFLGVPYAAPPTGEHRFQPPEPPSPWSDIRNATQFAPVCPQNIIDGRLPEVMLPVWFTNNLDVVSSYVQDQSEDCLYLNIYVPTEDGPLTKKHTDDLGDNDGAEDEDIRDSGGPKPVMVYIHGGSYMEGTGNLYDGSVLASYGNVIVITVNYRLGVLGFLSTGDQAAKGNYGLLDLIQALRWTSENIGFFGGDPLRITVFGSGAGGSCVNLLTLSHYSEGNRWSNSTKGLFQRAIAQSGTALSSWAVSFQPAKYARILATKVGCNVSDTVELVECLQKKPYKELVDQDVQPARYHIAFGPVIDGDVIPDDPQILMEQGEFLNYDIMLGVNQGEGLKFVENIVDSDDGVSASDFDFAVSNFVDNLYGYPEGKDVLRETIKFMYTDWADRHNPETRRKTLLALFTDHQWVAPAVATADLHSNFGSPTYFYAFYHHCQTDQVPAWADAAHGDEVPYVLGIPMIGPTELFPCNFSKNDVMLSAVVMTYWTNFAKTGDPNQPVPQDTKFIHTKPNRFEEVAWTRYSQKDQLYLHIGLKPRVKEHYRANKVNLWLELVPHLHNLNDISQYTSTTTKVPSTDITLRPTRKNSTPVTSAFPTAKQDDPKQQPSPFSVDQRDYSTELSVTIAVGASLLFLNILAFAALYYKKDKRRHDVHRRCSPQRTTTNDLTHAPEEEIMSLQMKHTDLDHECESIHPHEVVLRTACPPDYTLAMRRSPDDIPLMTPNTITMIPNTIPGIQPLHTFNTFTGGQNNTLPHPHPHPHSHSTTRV

These are yes or no findings as the source states them, for the method shown. In cells and extracts the contact can be indirect. Some binding calls cover weakened binding; strength is not graded here.

On to “Neuroligin 3 (from UniProt Q8BYM5 35-825)”, for which the binding entry is “binds”.
The same measure for “Neuroligin 2 (from UniProt Q69ZK9 15-836)”: “binds”.
As for “Neuroligin 1 (from UniProt Q99K10 46-843)”, the entry is “no binding”.

For the origin of these results see article PMC3387162.
